Results on 30 sequences are retold here after article PMC7862700.

Sequences of proteins named here, by UniProt entry; tags and fusion partners are left off. A change or cut given only in a name is not applied to a line headed by its entry.
UniProt Q01892: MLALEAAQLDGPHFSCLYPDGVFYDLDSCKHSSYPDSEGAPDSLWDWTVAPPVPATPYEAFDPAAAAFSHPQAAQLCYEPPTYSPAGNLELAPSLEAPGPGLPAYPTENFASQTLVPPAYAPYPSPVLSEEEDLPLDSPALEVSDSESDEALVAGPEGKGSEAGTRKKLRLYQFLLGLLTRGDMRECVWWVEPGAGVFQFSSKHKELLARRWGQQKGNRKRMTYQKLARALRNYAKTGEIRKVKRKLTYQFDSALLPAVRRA
UniProt P41161: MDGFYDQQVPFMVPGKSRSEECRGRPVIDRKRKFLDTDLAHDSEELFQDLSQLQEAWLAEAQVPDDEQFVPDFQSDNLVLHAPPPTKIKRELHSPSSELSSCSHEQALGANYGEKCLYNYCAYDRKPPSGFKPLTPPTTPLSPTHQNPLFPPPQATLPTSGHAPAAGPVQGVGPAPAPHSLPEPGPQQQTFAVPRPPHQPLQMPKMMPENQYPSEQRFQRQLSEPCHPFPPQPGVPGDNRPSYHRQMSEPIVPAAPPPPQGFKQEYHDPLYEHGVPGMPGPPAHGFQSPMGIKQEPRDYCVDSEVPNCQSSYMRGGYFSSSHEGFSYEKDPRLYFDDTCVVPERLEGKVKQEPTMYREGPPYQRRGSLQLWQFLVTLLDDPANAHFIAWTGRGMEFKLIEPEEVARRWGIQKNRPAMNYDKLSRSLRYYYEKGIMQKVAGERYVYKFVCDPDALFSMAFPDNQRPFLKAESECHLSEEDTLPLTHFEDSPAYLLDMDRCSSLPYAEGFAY
UniProt Q99607: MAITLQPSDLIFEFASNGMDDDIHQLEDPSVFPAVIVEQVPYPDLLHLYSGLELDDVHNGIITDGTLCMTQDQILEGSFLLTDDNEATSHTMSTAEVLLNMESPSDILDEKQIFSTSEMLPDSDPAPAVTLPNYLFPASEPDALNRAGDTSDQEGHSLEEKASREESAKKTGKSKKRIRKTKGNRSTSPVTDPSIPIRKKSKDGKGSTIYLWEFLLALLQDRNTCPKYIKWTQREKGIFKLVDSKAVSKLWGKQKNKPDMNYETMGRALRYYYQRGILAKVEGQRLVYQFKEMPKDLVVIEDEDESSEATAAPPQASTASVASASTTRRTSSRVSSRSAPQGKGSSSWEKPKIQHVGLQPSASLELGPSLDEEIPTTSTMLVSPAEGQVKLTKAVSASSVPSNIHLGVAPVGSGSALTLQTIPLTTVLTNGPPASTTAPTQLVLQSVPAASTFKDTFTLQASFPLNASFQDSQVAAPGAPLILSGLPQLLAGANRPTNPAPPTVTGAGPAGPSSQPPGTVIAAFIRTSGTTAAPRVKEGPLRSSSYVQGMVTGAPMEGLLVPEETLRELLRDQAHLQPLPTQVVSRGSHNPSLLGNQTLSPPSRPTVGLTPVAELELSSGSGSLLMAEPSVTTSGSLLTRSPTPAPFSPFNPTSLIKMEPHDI

Test in all cases: DAPPL (digital affinity profiling via proximity ligation, sequencing)
What all share (conditions): 10 mM Tris-HCl pH 7.5, 50 mM NaCl, 1 mM DTT, 4% glycerol, room temperature, 30 min; GST-TFs on glutathione beads, 16-mer random dsDNA library, 0.1% …; high values mean tight binding; double strand, one strand shown; scale: fold enrichment (6-mer frequency, TF over GST control)

The target of assay [1] is T1, FLI1 (UniProt Q01543).
T1 sequence: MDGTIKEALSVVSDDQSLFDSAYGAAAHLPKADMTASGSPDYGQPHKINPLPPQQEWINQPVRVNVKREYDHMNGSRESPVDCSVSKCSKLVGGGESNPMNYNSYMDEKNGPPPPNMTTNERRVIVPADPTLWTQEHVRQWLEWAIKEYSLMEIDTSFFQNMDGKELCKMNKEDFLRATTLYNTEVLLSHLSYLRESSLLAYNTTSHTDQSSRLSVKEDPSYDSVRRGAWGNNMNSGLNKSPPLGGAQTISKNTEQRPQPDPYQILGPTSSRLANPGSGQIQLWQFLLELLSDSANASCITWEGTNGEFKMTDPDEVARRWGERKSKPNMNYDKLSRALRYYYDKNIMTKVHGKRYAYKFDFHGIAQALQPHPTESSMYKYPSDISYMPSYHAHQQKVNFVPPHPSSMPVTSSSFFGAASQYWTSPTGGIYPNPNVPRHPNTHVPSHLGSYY

Assay [2] addresses T2, EHF (UniProt Q9NZC4).
T2 sequence: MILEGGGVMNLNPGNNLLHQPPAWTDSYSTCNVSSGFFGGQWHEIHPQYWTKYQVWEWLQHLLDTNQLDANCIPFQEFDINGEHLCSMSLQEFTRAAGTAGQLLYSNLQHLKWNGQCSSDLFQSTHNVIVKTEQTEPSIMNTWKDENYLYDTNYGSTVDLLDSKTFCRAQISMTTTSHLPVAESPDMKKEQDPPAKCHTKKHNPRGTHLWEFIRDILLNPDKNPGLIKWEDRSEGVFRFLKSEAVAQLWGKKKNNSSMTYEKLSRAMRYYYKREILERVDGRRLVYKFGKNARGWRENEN

Assay [3] has as its target SPIB (UniProt Q01892).
Assay [4] deals with ETV5 (UniProt P41161).
In assay [5] the target is ELF4 (UniProt Q99607).
Assay [6] addresses T3, ETV2 (UniProt O00321).
T3 sequence: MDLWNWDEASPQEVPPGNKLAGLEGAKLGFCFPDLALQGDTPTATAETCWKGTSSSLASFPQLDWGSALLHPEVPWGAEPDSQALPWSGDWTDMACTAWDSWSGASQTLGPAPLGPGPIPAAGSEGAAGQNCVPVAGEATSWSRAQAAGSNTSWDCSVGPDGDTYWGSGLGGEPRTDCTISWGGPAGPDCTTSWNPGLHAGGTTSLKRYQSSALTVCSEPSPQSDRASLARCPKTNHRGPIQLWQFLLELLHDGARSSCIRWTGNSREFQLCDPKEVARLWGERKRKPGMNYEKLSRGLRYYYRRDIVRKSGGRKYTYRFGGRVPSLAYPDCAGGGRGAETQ

The target of assay [7] is T4, ETV3L (UniProt Q6ZN32).
T4 sequence: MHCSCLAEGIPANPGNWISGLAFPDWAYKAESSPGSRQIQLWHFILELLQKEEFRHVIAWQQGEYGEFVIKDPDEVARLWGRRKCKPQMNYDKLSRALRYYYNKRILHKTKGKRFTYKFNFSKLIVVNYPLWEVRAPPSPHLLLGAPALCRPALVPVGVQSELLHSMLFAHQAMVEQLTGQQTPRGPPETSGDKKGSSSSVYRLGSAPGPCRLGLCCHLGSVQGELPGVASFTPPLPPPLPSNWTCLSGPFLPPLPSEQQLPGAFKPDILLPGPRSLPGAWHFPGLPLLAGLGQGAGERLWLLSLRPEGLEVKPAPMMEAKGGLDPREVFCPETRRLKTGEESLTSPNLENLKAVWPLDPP

This is a selection; strong and weak results do not stand in their true shares. At the low end of the ranking the order means little.

AGACGA: the binding signal amounted to 0.693 in assay [1]; 0.732 in assay [2]; 0.727 in assay [3]; 0.72 in assay [4]; 0.708 in assay [5]; 0.763 in assay [6]. In assay [7], this sequence returned a binding signal of 0.698.
Turning to GACGTC, the binding signal in assay [1] is 0.869; in assay [2] it was 0.887; in assay [3] it was 0.983; in assay [4], 0.844; in assay [5], 0.835; in assay [6] it was 0.855. This sequence also yielded a binding signal in assay [7] of 0.858.
On to AGTGGA, for which the binding signal in assay [1] came out at 0.756; in assay [2], 0.841; in assay [3], 0.739; in assay [4], 0.746; in assay [5], 0.723; in assay [6] it was 0.823. This sequence returned a binding signal in assay [7] of 0.767.
Take CGTAGA: the binding signal in assay [1] amounted to 0.77; in assay [2], 0.667; in assay [3], 0.682; in assay [4], 0.682; in assay [5] it was 0.692; in assay [6], 0.759. The binding signal in assay [7] worked out at 0.693.
GAGTAC: the binding signal stood at 0.518 in assay [1]; 0.569 in assay [2]; 0.511 in assay [3]; 0.567 in assay [4]; 0.559 in assay [5]; 0.591 in assay [6]. The binding signal in assay [7] worked out at 0.556.
For TAAGTG, the binding signal turned out to be 0.771 in assay [1]; 0.847 in assay [2]; 0.785 in assay [3]; 0.818 in assay [4]; 0.814 in assay [5]; 0.833 in assay [6]. Moreover, in assay [7], the binding signal came out at 0.79.
As to GGAGAA, the binding signal in assay [1] worked out at 0.338; in assay [2], 0.323; in assay [3], 0.314; in assay [4] it was 0.349; in assay [5], 0.331; in assay [6], 0.285. This sequence also registered a binding signal in assay [7] of 0.346.
Take GCCAGG: the binding signal was found to be 0.437 in assay [1]; 0.423 in assay [2]; 0.392 in assay [3]; 0.419 in assay [4]; 0.436 in assay [5]; 0.435 in assay [6]. In assay [7], this sequence came in with a binding signal of 0.451.
Consider GGAGCG, for which the binding signal in assay [1] worked out at 0.346; in assay [2], 0.387; in assay [3], 0.372; in assay [4], 0.353; in assay [5], 0.394; in assay [6], 0.362. In addition, the binding signal in assay [7] came to 0.387.
On to GGGGGA, for which the binding signal was found to be 0.639 in assay [1]; 0.533 in assay [2]; 0.562 in assay [3]; 0.57 in assay [4]; 0.505 in assay [5]; 0.589 in assay [6]. In assay [7], this sequence displayed a binding signal of 0.635.
As to GCGTGT, the binding signal in assay [1] worked out at 0.636; in assay [2], 0.532; in assay [3], 0.573; in assay [4], 0.564; in assay [5] it was 0.544; in assay [6], 0.556. The sequence further showed a binding signal in assay [7] of 0.537.
As to GAGGGA, the binding signal in assay [1] was determined as 0.472; in assay [2], 0.497; in assay [3], 0.48; in assay [4], 0.504; in assay [5] it was 0.499; in assay [6], 0.475. The sequence also came in with a binding signal in assay [7] of 0.526.
Take TAGTCG: the binding signal in assay [1] turned out to be 0.482; in assay [2], 0.436; in assay [3], 0.452; in assay [4] it was 0.447; in assay [5], 0.432; in assay [6] it was 0.521. In assay [7], this sequence yielded a binding signal of 0.442.
With CAGTCA, the binding signal in assay [1] is 0.489; in assay [2], 0.473; in assay [3], 0.485; in assay [4], 0.47; in assay [5], 0.506; in assay [6], 0.455. The sequence further showed a binding signal in assay [7] of 0.487.
For CGGCGT, the binding signal in assay [1] is 0.816; in assay [2], 0.897; in assay [3] it was 0.798; in assay [4] it was 0.797; in assay [5], 0.775; in assay [6] it was 0.967. In addition, in assay [7], the binding signal was 0.863.
In the case of GGGAAG, the binding signal in assay [1] worked out at 0.822; in assay [2], 0.917; in assay [3] it was 0.917; in assay [4] it was 0.95; in assay [5] it was 0.757; in assay [6], 0.832. The sequence also returned a binding signal in assay [7] of 0.842.
Take GCACCA: the binding signal in assay [1] was 0.886; in assay [2], 0.859; in assay [3], 0.78; in assay [4], 0.832; in assay [5], 0.877; in assay [6], 0.782. This sequence also yielded a binding signal in assay [7] of 0.892.
With CTGTCG, the binding signal in assay [1] worked out at 0.572; in assay [2], 0.558; in assay [3], 0.566; in assay [4], 0.584; in assay [5], 0.56; in assay [6], 0.608. For the same sequence, the binding signal in assay [7] is 0.494.
As for AGGACT, the binding signal in assay [1] came to 0.895; in assay [2], 0.934; in assay [3], 0.899; in assay [4] it was 0.889; in assay [5] it was 0.959; in assay [6], 0.968. In assay [7], this sequence gave a binding signal of 0.999.
Turning to CGGGTT, the binding signal in assay [1] was found to be 0.884; in assay [2] it was 0.945; in assay [3], 0.863; in assay [4], 0.92; in assay [5], 0.902; in assay [6] it was 0.802. For the same sequence, in assay [7], the binding signal was determined as 0.815.
TAGGGG: the binding signal is 0.819 in assay [1]; 0.85 in assay [2]; 0.841 in assay [3]; 0.816 in assay [4]; 0.801 in assay [5]; 0.887 in assay [6]. This sequence also displayed a binding signal in assay [7] of 0.874.
Consider CGGGAG, for which the binding signal in assay [1] was 0.197; in assay [2] it was 0.203; in assay [3], 0.204; in assay [4] it was 0.203; in assay [5], 0.183; in assay [6] it was 0.201. Also, the binding signal in assay [7] was determined as 0.213.
Turning to AGGAGG, the binding signal amounted to 0.234 in assay [1]; 0.219 in assay [2]; 0.214 in assay [3]; 0.231 in assay [4]; 0.203 in assay [5]; 0.232 in assay [6]. In assay [7], this sequence yielded a binding signal of 0.22.
Take TGGAGA: the binding signal stood at 0.43 in assay [1]; 0.41 in assay [2]; 0.386 in assay [3]; 0.428 in assay [4]; 0.413 in assay [5]; 0.388 in assay [6]. In assay [7], this sequence displayed a binding signal of 0.423.
Regarding GGGGGT, the binding signal was 0.51 in assay [1]; 0.518 in assay [2]; 0.543 in assay [3]; 0.475 in assay [4]; 0.527 in assay [5]; 0.591 in assay [6]. The sequence further had a binding signal in assay [7] of 0.603.
On to GCAGGG, for which the binding signal in assay [1] was found to be 0.697; in assay [2] it was 0.577; in assay [3], 0.65; in assay [4] it was 0.596; in assay [5] it was 0.65; in assay [6], 0.611. This sequence also had a binding signal in assay [7] of 0.658.
Take CAACGG: the binding signal in assay [1] turned out to be 0.925; in assay [2], 0.988; in assay [3], 0.991; in assay [4], 0.975; in assay [5] it was 0.991; in assay [6], 0.882. In assay [7], this sequence returned a binding signal of 0.955.
For AGGTGA, the binding signal in assay [1] is 0.561; in assay [2], 0.562; in assay [3] it was 0.554; in assay [4], 0.571; in assay [5] it was 0.566; in assay [6] it was 0.478. Moreover, in assay [7], the binding signal came out at 0.531.
As to ACGAGT, the binding signal in assay [1] worked out at 0.721; in assay [2], 0.728; in assay [3], 0.708; in assay [4], 0.728; in assay [5], 0.764; in assay [6], 0.779. In assay [7], this sequence came in with a binding signal of 0.722.
CTAGAG: the binding signal in assay [1] is 0.829; in assay [2], 0.873; in assay [3], 0.767; in assay [4], 0.83; in assay [5], 0.909; in assay [6] it was 0.921. Also, in assay [7], the binding signal was 0.849.
